## Library screen at single concentrations

Data taken from ChEMBL document CHEMBL3988442, “University of Dundee, Small-Polar-MMV Screening Library” (2021).

Mtb glucose medium: 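Phenotypic screen: M. tuberculosis growth, glucose 7H9 medium, 3 days; the read-out is not stated. Concentration: 50 µM. Higher reads as more growth inhibition (inferred: compounds with an IC50 in retests scored well above the rest). About 69,000 compounds were tested under these conditions; 1.1% (about 760) showed 50% or more at least once.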
Mtb cholesterol medium: 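Whole-cell growth test on Mycobacterium tuberculosis, read after 4 days in a medium based on cholesterol and the lipid DPPC; the read-out is not stated. Tested at 50 µM. The record gives no direction; compounds that gave an IC50 in retests scored well above the rest, so higher reads as more growth inhibition. Size under these conditions: about 69,000 compounds, about 370 of them at 50% or above in at least one test.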

Values are the deposited “Percent Effect”, in %. How 0% and 100% were set is not recorded. Most values in the screen are low, and negative values occur. This is an unselected part of the compounds tested. Two or more numbers in one place are separate tests of the same structure; such repeats can differ widely.

- O=C1NCC2(CCCN(Cc3ccncc3)C2)Oc2ccccc21 (stereo unspecified) | Mtb glucose medium: -4.609%; Mtb cholesterol medium: -7.131%
- O=C(O)C(F)(F)F.[H][C@@]12CN(CC3CC3)C[C@]1([H])C(=O)N(c1ccsc1)C2 | Mtb glucose medium: 26.46%; Mtb cholesterol medium: 23.88%
- Cc1cc(C)n(C2CN(CCC(=O)NC3CCCCC3)C2)n1 | Mtb glucose medium: 10.84%; Mtb cholesterol medium: -8.725%
- COc1ccc(NC(=O)c2nc(C)sc2C)cn1 | Mtb glucose medium: -7.01% & -37.15%; Mtb cholesterol medium: -33.4%
- CCOCCN1CCC(c2cncc(C)n2)CC1 | Mtb glucose medium: -16.63%; Mtb cholesterol medium: 6.571% & 0.8282%
- CC(C)CN1C(=O)C2(CCN(Cc3ccsc3)C2)c2ccccc21.O=C(O)C(F)(F)F (stereo unspecified) | Mtb glucose medium: 5.882%; Mtb cholesterol medium: -19.04%
- COc1ccc(C(=O)N(C)Cc2cc(C)on2)c(F)c1 | Mtb glucose medium: -7.184%; Mtb cholesterol medium: -2.779%
- O=C([C@@H]1CCCN1c1nccc(Nc2ccccc2)n1)N1CCCCC1 | Mtb glucose medium: -47.36%; Mtb cholesterol medium: -36.87%
- O=C(O)C(F)(F)F.[H][C@@]12OCCN(C(=O)c3ccccc3C)[C@@]1([H])CC[C@H]2OCCN(C)C | Mtb glucose medium: 10.98%; Mtb cholesterol medium: 18.75%
- Cc1ccc(CNC(=O)CCNS(C)(=O)=O)cc1 | Mtb glucose medium: -6.864%; Mtb cholesterol medium: -13.32%
- CCn1c(N)nc2cc(C(=O)NCCCc3ccccn3)cnc21 | Mtb glucose medium: -40.8%; Mtb cholesterol medium: -6.108%
- O=C(Cc1ccon1)N(CCC(F)(F)F)C1CCCC1 | Mtb glucose medium: -9.995% & -22.66%; Mtb cholesterol medium: -1.386%
- CNC(=O)NC(=O)CCN1CCCC1c1nc(C2CCCCC2)co1 (stereo unspecified) | Mtb glucose medium: 27.68%; Mtb cholesterol medium: 15.07%
- Cc1ccc(CN(Cc2[nH]cnc2C)C2CC(C)(C)NC(C)(C)C2)o1.O=C(O)CC(O)(CC(=O)O)C(=O)O | Mtb glucose medium: 17.56%; Mtb cholesterol medium: -29.07%
- CN(C)Cc1nnc(C2CCN(c3ncccn3)CC2)n1C1CC1 | Mtb glucose medium: -26.22%; Mtb cholesterol medium: -33.97%
- O=C(O)C(F)(F)F.O=C(O)C(F)(F)F.O=C(O)C(F)(F)F.[H][C@]12C[C@@H](C(=O)NCC3CC3)N(C)[C@@]1([H])CN(Cc1cccnc1OC)C2 | Mtb glucose medium: -11.85%; Mtb cholesterol medium: -6.984% & -8.995%
- CCCC(=O)NCCc1nc(N(C)C)ncc1-c1ccncc1 | Mtb glucose medium: -5.962%; Mtb cholesterol medium: -8.544% & 0.6363%
- O=C(O)C(F)(F)F.[H][C@@]12CCN(Cc3ccc(C)o3)C[C@@]1([H])O[C@@H](C(=O)N1CCCO1)C2 | Mtb glucose medium: 4.669% & -6.935%; Mtb cholesterol medium: -5.263% & -80.26%
- CCn1nnc2cc(C(=O)N3CCCC3Cn3cc(C)cn3)ccc21 (stereo unspecified) | Mtb glucose medium: 5.966%; Mtb cholesterol medium: 4.956%
- CCc1nc2ccccc2c(=O)n1CC1(O)CCN(S(C)(=O)=O)CC1.Cl | Mtb glucose medium: 33.94%; Mtb cholesterol medium: -10.21%
- CCOC(=O)CC1CCCCN1C(=O)c1cc(C)on1 (stereo unspecified) | Mtb glucose medium: 10.08%; Mtb cholesterol medium: 7.067%
- Cc1nc(C(C)(C)NC(=O)Nc2ccc(C#N)cc2)no1 | Mtb glucose medium: 17.05% & -4.359%; Mtb cholesterol medium: 11.86%
- CCn1cc(S(=O)(=O)NC2CCCN(CCCc3ccccc3)C2)cn1 (stereo unspecified) | Mtb glucose medium: 10.49% & -0.4971%; Mtb cholesterol medium: -4.952% & -11.32%
- CCn1nc(C)c2ccn(CC(=O)NC(C)C)c(=O)c21 | Mtb glucose medium: -1.035%; Mtb cholesterol medium: -21.02%
- Cc1nc(N(C)C)cc(C2(C)CCCNC2)n1 (stereo unspecified) | Mtb glucose medium: -19.46%; Mtb cholesterol medium: -14.13% & -4.972%
- N#Cc1cccc(CS(=O)(=O)NCC(O)Cc2ccccc2)c1 (stereo unspecified) | Mtb glucose medium: 2.037%; Mtb cholesterol medium: 17.9%
- CSCCN1CCN(c2nc(N)ncc2C)CC1 | Mtb glucose medium: -8.164% & -64.39%; Mtb cholesterol medium: -26.86%
- CSCc1cccc(S(=O)(=O)NCc2cnn(C)c2C)c1 | Mtb glucose medium: -0.0953%; Mtb cholesterol medium: -3.783%
- [H][C@@]12CN(C3CCOCC3)C[C@]1([H])OCC(=O)N2Cc1ccc(F)cc1 | Mtb glucose medium: -62.5% & -5.45%; Mtb cholesterol medium: -45.87%
- Cc1cccc(CN2CCC3(CCN(c4ncccn4)C3)C2=O)c1 (stereo unspecified) | Mtb glucose medium: -15.39%; Mtb cholesterol medium: -8.042%
- O=C(c1ccnc(-n2cnnc2)c1)N1CCCC2(CCNC2)C1 (stereo unspecified) | Mtb glucose medium: 6.631% & 23.08%; Mtb cholesterol medium: 22.2%
- Cc1nc(CN2CCC3(CCN(C(=O)c4ccoc4C)CC3)C2)cs1.O=C(O)C(F)(F)F | Mtb glucose medium: -20.85% & -4.89%; Mtb cholesterol medium: 2.813%
- O=C(O)C(F)(F)F.[H][C@@]12CCN(Cc3cc(C)on3)C[C@]1([H])OCCN(c1ccccc1)C2=O | Mtb glucose medium: 0.1483%; Mtb cholesterol medium: -24.19%
- CN(C)c1ncccc1CNC(=O)c1csc(Br)c1 | Mtb glucose medium: -11.16%; Mtb cholesterol medium: -16%
- CN1CCCC1CNC(=O)CCCOc1ccc(Cl)cc1 (stereo unspecified) | Mtb glucose medium: 8.424%; Mtb cholesterol medium: 3.495%
- CCc1nnc(CN(CC)C(=O)C2CC(=O)N(C(C)(C)C)C2)o1 (stereo unspecified) | Mtb glucose medium: -22.89%; Mtb cholesterol medium: -8.527%
- O=C(CN1CCOC(Cn2cccn2)C1)NC1CCN(C2CC2)CC1 (stereo unspecified) | Mtb glucose medium: -33.29%; Mtb cholesterol medium: -12.17% & 1.241%
- O=C(O)C(F)(F)F.O=C(O)C(F)(F)F.[H][C@@]12CO[C@@H](CN(C)C)[C@]1([H])CCN(Cc1ccoc1)C2 | Mtb glucose medium: -16.73% & 0.572%; Mtb cholesterol medium: -5.141% & -18.91%
- Cl.O=C(NCc1ccccc1F)C1=NOC2(CCNC2)C1 (stereo unspecified) | Mtb glucose medium: -15.22%; Mtb cholesterol medium: 3.367%
- NC(=O)NCC(=O)N1CCCC(c2nccn2Cc2ccncc2)C1 (stereo unspecified) | Mtb glucose medium: 5.534%; Mtb cholesterol medium: -12.99% & 7.731%
- CN(C1CCCCC1)S(=O)(=O)N1CCN(Cc2ccco2)CC1 | Mtb glucose medium: -3.413% & 8.808%; Mtb cholesterol medium: -5.726%
- COCc1noc(Cn2ccc3ncccc3c2=O)n1 | Mtb glucose medium: 9.858%; Mtb cholesterol medium: -23.02%
- Cn1cc(-c2csc(CN3CCOCC3)n2)cn1 | Mtb glucose medium: -0.4207% & -5.87%; Mtb cholesterol medium: 0.6376%
- O=C(CN1CCN(C(=O)c2sccc2C2CC2)CC1)NC1CC1 | Mtb glucose medium: -30.46%; Mtb cholesterol medium: -37.3%
- [H][C@@]12CN(C(=O)N(C)C)C[C@]1([H])C(=O)NC21CCN(C(=O)NC(C)C)CC1 | Mtb glucose medium: -16.61%; Mtb cholesterol medium: -12.19%
- N#Cc1ccccc1C(=O)N1C[C@@H](CN2CCCCCC2)[C@@H](CO)C1 | Mtb glucose medium: -4.014% & 24.44%; Mtb cholesterol medium: 9.168%
- O=C(Cc1ccc2c(c1)OCCO2)NCc1ccc(-n2cncn2)nc1 | Mtb glucose medium: -13.2%; Mtb cholesterol medium: -31.04%
- CCc1noc(CN2CCCN(C(C)=O)CC2)n1 | Mtb glucose medium: -5.125%; Mtb cholesterol medium: 12.61%

For reference, 6 entries once more:

Cc1ccc(CN(Cc2[nH]cnc2C)C2CC(C)(C)NC(C)(C)C2)o1.O=C(O)CC(O)(CC(=O)O)C(=O)O gave Mtb glucose medium: 17.56%; Mtb cholesterol medium: -29.07%.
O=C(CN1CCOC(Cn2cccn2)C1)NC1CCN(C2CC2)CC1 (stereo unspecified) gave Mtb glucose medium: -33.29%; Mtb cholesterol medium: -12.17% & 1.241%.
Cc1nc(N(C)C)cc(C2(C)CCCNC2)n1 (stereo unspecified) gave Mtb glucose medium: -19.46%; Mtb cholesterol medium: -14.13% & -4.972%.
CCCC(=O)NCCc1nc(N(C)C)ncc1-c1ccncc1 gave Mtb glucose medium: -5.962%; Mtb cholesterol medium: -8.544% & 0.6363%.
O=C(Cc1ccc2c(c1)OCCO2)NCc1ccc(-n2cncn2)nc1 gave Mtb glucose medium: -13.2%; Mtb cholesterol medium: -31.04%.
O=C(Cc1ccon1)N(CCC(F)(F)F)C1CCCC1 gave Mtb glucose medium: -9.995% & -22.66%; Mtb cholesterol medium: -1.386%.